In publication PMC5344518, “Anti-trypanosomal activity of non-peptidic nitrile-based cysteine protease inhibitors” (PLoS Neglected Tropical Diseases, 2017):

test system: amastigote forms of T. cruzi CL Brener strain; assay: Anti-trypanosomal activity assay (beta-galactosidase reporter, infected LLC-MK2 cells); format: cell-based; conditions: anti-trypanosomal pEC50 minus cruzain pKi
Description: Assays were performed against amastigote forms of T. cruzi CL Brener strain, which expresses β-galactosidase derived from Escherichia coli, infecting monkey kidney (LLC-MK2) cells as described. Previously, LLC-MK2 host cells were cultivated in 96-wells microplates (10^3 cells/well). […] Then, the wells were washed with PBS to remove the extracellular parasites and the tested compounds were added in the final concentrations of 0.031, 0.125, 0.5, 2.0, 8.0, 32.0, 128 and 512 μM. After this, the microplates were incubated at 37°C, in CO2 atmosphere (5%), for 5 days. Then, 10 μL of FluoReporter lacZ/Galactosidase Quantitation Kit (Molecular Probes, ThermoFisher Scientific) were added and after 30 minutes the fluorometric reaction was read in a microplate reader (Synergy H1, Biotek) at 386 nm excitation and 448 nm emission. The metabolism of the substrate is directly correlated with the amount of β-galactosidase activity and, therefore, the number amastigotes. The percentage of activity for each compound was determined from the following formula: %activity = 100 –{[(X-PC)/(NC-PC)]x100}, where the optical density values of the samples (X), the positive controls (PC) and negative controls (NC) were used. Culture medium alone was used as positive control (PC) and cells with medium and 0.6% DMSO (v/v) as negative control (NC). All assays were performed in triplicate with two independent experiments.

Row | Compound | pEC50 − pKi
1 | COc1cc(N2CCN(C(=O)[C@@H]3CCCC[C@H]3C(=O)NC3(C#N)CC3)[C@H](C)C2)ccc1C1CC1 [Compound 11] | 1.0
2 | Cc1nn(C)c2cc(N3CCN(C(=O)[C@@H]4CCCC[C@H]4C(=O)NC4(C#N)CC4)[C@H](C)C3)ccc12 [Compound 12] | 0.4
3 | N#CC1(NC(=O)[C@H](Cc2ccccc2)N[C@H](c2ccccc2)C(F)(F)F)CC1 [Compound 5, (S)-N-(1-cyanocyclopropyl)-3-phenyl-2-(((R)-2,2,2-trifluoro-1-phenyl-ethyl)amino)propanamide] | 1.3
